Reference: PMC10110396
These are yes or no findings as the source states them, for the method shown. In cells and extracts the contact can be indirect. Some results given as binding are weak or reduced against the parent protein; the word gives no strength. Tags and fused reporters may be left off the sequences shown.

T1: lysosome-associated membrane protein-1 (LAMP-1), endogenous (human (endogenous in HEK293T)) (UniProt P11279)
T1 sequence: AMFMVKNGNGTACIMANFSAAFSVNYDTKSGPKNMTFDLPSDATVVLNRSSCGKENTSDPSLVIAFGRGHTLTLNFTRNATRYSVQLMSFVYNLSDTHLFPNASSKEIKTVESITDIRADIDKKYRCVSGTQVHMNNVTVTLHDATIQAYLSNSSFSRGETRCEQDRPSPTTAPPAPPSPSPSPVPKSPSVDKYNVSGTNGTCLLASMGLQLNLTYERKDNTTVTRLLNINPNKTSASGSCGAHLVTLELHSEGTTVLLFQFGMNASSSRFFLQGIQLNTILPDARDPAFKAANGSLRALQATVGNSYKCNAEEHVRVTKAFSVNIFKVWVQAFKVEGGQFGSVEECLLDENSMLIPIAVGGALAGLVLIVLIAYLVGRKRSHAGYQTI


Assays:
[1] = target: T1, lysosome-associated membrane protein-1 (LAMP-1), endogenous (human (endogenous in HEK293T)); test: proximity ligation; Duolink In Situ-Fluorescence on fixed, methanol-permeabilised transfected HEK293T cells; GDAP1-MYC and endogenous LAMP-1; dots per cell counted
[2] = target: T1, lysosome-associated membrane protein-1 (LAMP-1), endogenous (human (endogenous in HEK293T)); test: co-IP; 1 mg of total lysate of transfected HEK293T cells (50 mM Tris HCl pH 7.4, 1.5 mM MgCl2, 5 mM EDTA, 1% Triton X-100, 50 mM NaF, 1 mM Na2VO3) incubated with the specific antibody 6-8 h at 4°C, then Protein G Sepharose overnight at 4°C; western blot; which antibody precipitated is not stated

Binder	binding [1]	binding [2]
GDAP1-MYC fusion protein, wild-type (protein, UniProt Q8TB36 1-358) MAERQEEQRGSPPLRAEGKADAEVKLILYHWTHSFSSQKVRLVIAEKALKCEEHDVSLPLSEHNEPWFMRLNSTGEVPVLIHGENIICEATQIIDYLEQTFLDERTPRLMPDKESMYYPRVQHYRELLDSLPMDAYTHGCILHPELTVDSMIPAYATTRIRSQIGNTESELKKLAEENPDLQEAYIAKQKRLKSKLLDHDNVKYLKKILDELEKVLDQVETELQRRNEETPEEGQQPWLCGESFTLADVSLAVTLHRLKFLGFARRNWGNGKRPNLETYYERVLKRKTFNKVLGHVNNILISAVLPTAFRVAKKRAPKVLGTTLVVGLLAGVGYFAFMLFRKRLGSMILAFRPRPNYF	binds	binds
GDAP1-MYC fusion protein, p.Thr157Pro (dominant clinical variant) (protein, UniProt Q8TB36 1-358) MAERQEEQRGSPPLRAEGKADAEVKLILYHWTHSFSSQKVRLVIAEKALKCEEHDVSLPLSEHNEPWFMRLNSTGEVPVLIHGENIICEATQIIDYLEQTFLDERTPRLMPDKESMYYPRVQHYRELLDSLPMDAYTHGCILHPELTVDSMIPAYAPTRIRSQIGNTESELKKLAEENPDLQEAYIAKQKRLKSKLLDHDNVKYLKKILDELEKVLDQVETELQRRNEETPEEGQQPWLCGESFTLADVSLAVTLHRLKFLGFARRNWGNGKRPNLETYYERVLKRKTFNKVLGHVNNILISAVLPTAFRVAKKRAPKVLGTTLVVGLLAGVGYFAFMLFRKRLGSMILAFRPRPNYF	binds	binds
GDAP1-MYC fusion protein, p.Arg161His (recessive clinical variant) (protein, UniProt Q8TB36 1-358) MAERQEEQRGSPPLRAEGKADAEVKLILYHWTHSFSSQKVRLVIAEKALKCEEHDVSLPLSEHNEPWFMRLNSTGEVPVLIHGENIICEATQIIDYLEQTFLDERTPRLMPDKESMYYPRVQHYRELLDSLPMDAYTHGCILHPELTVDSMIPAYATTRIHSQIGNTESELKKLAEENPDLQEAYIAKQKRLKSKLLDHDNVKYLKKILDELEKVLDQVETELQRRNEETPEEGQQPWLCGESFTLADVSLAVTLHRLKFLGFARRNWGNGKRPNLETYYERVLKRKTFNKVLGHVNNILISAVLPTAFRVAKKRAPKVLGTTLVVGLLAGVGYFAFMLFRKRLGSMILAFRPRPNYF	binds	binds
